Results deposited as PubChem BioAssay AID1259405 (NCATS, 2018)

- Test: 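Silenced genes that increase secreted GFP made by CHO cells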 (primary screen)
- Cell system: Chinese hamster CHO-K1 ovary cells with stable secreted eGFP expression
- Knock-down reagent: single siRNA against mouse genes, 0.8 pmol siRNA per well (2 µl of 400 nM stock)
- Duration: 3 days
- Detection: 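Per-well intracellular GFP measured by laser scanning cytometry, plus viability from ATP luminescence, each relative to plate median of non-targeting control wells, in %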
- Direction: GFP, % of control: higher = more GFP per well, higher productivity; viability (ATP), % of control: higher = more viable cells (more ATP)
- Call rule: 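Called active when intracellular GFP, relative to negative control, is at or above 120%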
Shown is a random part of about 50,000 reagents tested. Of all reagents, about 4,000 (8%) got an active call. 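Mouse siRNA library applied to hamster cells; one well for each siRNA.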 A number with no mark means an inactive call. Reagents against one gene are numbered here.

Target gene | reagent no. | GFP, % of control | viability (ATP), % of control
Spata9 (spermatogenesis associated 9) | 1 | 90 | 105
Spata9 (spermatogenesis associated 9) | 2 | 99.6 | 84.3
Spata9 (spermatogenesis associated 9) | 3 | 63.6 | 102
Cys1 (cystin 1) | 1 | 94.5 | 86.1
Cys1 (cystin 1) | 2 | 105 | 72.7
Cys1 (cystin 1) | 3 | 115 | 125
Tent2 (terminal nucleotidyltransferase 2) | 1 | 69.9 | 61.8
Tent2 (terminal nucleotidyltransferase 2) | 2 | 80.4 | 74.3
Tent2 (terminal nucleotidyltransferase 2) | 3 | 76.3 | 61.9
Ptpra (protein tyrosine phosphatase receptor type A) | 1 | 169 (active) | 75.5
Ptpra (protein tyrosine phosphatase receptor type A) | 2 | 79.8 | 108
Ptpra (protein tyrosine phosphatase receptor type A) | 3 | 142 (active) | 93.8
Pou2f2 (POU domain, class 2, transcription factor 2) | 1 | 71.5 | 88.4
Pou2f2 (POU domain, class 2, transcription factor 2) | 2 | 153 (active) | 112
Pou2f2 (POU domain, class 2, transcription factor 2) | 3 | 75.2 | 71.8
Zfp11 (zinc finger protein 11) | 1 | 74.5 | 47.1
Zfp11 (zinc finger protein 11) | 2 | 75.8 | 79.6
Zfp11 (zinc finger protein 11) | 3 | 68.4 | 79.6
Irak1bp1 (interleukin-1 receptor-associated kinase 1 binding protein 1) | 1 | 48 | 64.6
Irak1bp1 (interleukin-1 receptor-associated kinase 1 binding protein 1) | 2 | 72.4 | 63.2
Irak1bp1 (interleukin-1 receptor-associated kinase 1 binding protein 1) | 3 | 154 (active) | 82.5

A stretch of the results above, for reference:
Target gene | reagent no. | GFP, % of control | viability (ATP), % of control
Zfp11 (zinc finger protein 11) | 3 | 68.4 | 79.6
Irak1bp1 (interleukin-1 receptor-associated kinase 1 binding protein 1) | 1 | 48 | 64.6
Irak1bp1 (interleukin-1 receptor-associated kinase 1 binding protein 1) | 2 | 72.4 | 63.2

More entries follow:
Target gene | reagent no. | GFP, % of control | viability (ATP), % of control
Or6z5 (olfactory receptor family 6 subfamily Z member 5) | 1 | 99.4 | 71.1
Or6z5 (olfactory receptor family 6 subfamily Z member 5) | 2 | 61.3 | 79.9
Or6z5 (olfactory receptor family 6 subfamily Z member 5) | 3 | 139 (active) | 92.4
Rtl1 (retrotransposon Gaglike 1) | 1 | 66.7 | 43.7
Rtl1 (retrotransposon Gaglike 1) | 2 | 57.2 | 64.1
Rtl1 (retrotransposon Gaglike 1) | 3 | 75.6 | 68.2
Tmem222 (transmembrane protein 222) | 1 | 53.4 | 52
Tmem222 (transmembrane protein 222) | 2 | 78.1 | 106
Tmem222 (transmembrane protein 222) | 3 | 104 | 77.1
Ces5a (carboxylesterase 5A) | 1 | 171 (active) | 126
Ces5a (carboxylesterase 5A) | 2 | 117 | 94.4
Ces5a (carboxylesterase 5A) | 3 | 74.7 | 41.9
Stk40 (serine/threonine kinase 40) | 1 | 58.4 | 80.7
Crebbp (CREB binding protein) | 1 | 98.3 | 90.9
Crebbp (CREB binding protein) | 2 | 112 | 71
Crebbp (CREB binding protein) | 3 | 64.9 | 53.3
Cct5 (chaperonin containing TCP1 subunit 5) | 1 | 60.3 | 107
Cct5 (chaperonin containing TCP1 subunit 5) | 2 | 69.9 | 41.5
Cct5 (chaperonin containing TCP1 subunit 5) | 3 | 93.1 | 102
Serpina6 (serine (or cysteine) peptidase inhibitor, clade A, member 6) | 1 | 138 (active) | 90.5
Serpina6 (serine (or cysteine) peptidase inhibitor, clade A, member 6) | 2 | 99.1 | 91.5
Serpina6 (serine (or cysteine) peptidase inhibitor, clade A, member 6) | 3 | 77.2 | 77.7
Spon2 (spondin 2, extracellular matrix protein) | 1 | 151 (active) | 122
Spon2 (spondin 2, extracellular matrix protein) | 2 | 85.1 | 72.2
Ndufs7 (NADH:ubiquinone oxidoreductase core subunit S7) | 1 | 82.4 | 91.3
Ndufs7 (NADH:ubiquinone oxidoreductase core subunit S7) | 2 | 50.1 | 82.7
Ndufs7 (NADH:ubiquinone oxidoreductase core subunit S7) | 3 | 95.8 | 91.9
Tas2r137 (taste receptor, type 2, member 137) | 1 | 52 | 81.2
Tas2r137 (taste receptor, type 2, member 137) | 2 | 93.1 | 94.8
Tas2r137 (taste receptor, type 2, member 137) | 3 | 83.6 | 75.2
Hspa8 (heat shock protein family A (Hsp70) member 8) | 1 | 52.8 | 16.4
Hspa8 (heat shock protein family A (Hsp70) member 8) | 2 | 40.2 | 11.7
Hspa8 (heat shock protein family A (Hsp70) member 8) | 3 | 51.4 | 21.1
Mrgpra6 (MAS-related GPR, member A6) | 1 | 50.2 | 32.6
Mrgpra6 (MAS-related GPR, member A6) | 2 | 84.5 | 87.6
Mrgpra6 (MAS-related GPR, member A6) | 3 | 55.3 | 62.2
